The nature of this data set: Comment Code material properties: vapor pressure, ClogP, probability of ingredient color instability, odor detection threshold, melamine formaldehyde PMC headspace response ratio and leakage, liquid dish neat product liquid-air partition coefficient. The class given is physicochemical. The settings on record: Table 1 materials; each letter of the code is one property class (vapor pressure, ClogP, color instability, odor detection threshold, PMC headspace ratio, PMC leakage, liquid dish liquid-air partition coefficient).

The values below come from patent US20160089464A1, “MALODOR REDUCTION COMPOSITIONS” (The Procter & Gamble Company, priority 2014, published 2016).

Structures are written as SMILES.

For `CCCCCCC[C@H]1CCC(=O)O1` [Material 885], the “Comment Code” value is “DEFHJKL”. On to `CCCCCCC[C@@H]1CCC(=O)O1` [Material 886], for which the “Comment Code” value is given as “DEFHJKL”.
